These are yes or no findings as the source states them, for the method shown. In cells and extracts the contact can be indirect. Some binding calls cover weakened binding; strength is not graded here. Each block holds one binder with its values, some of them ahead of it.
Assays:
[1] = target: T1, Activating transcription factor 7 (ATF7), endogenous (human (endogenous in HeLa S3)) (UniProt P17544); experiment: co-IP; endogenous ATF2 or ATF7 immunoprecipitated with specific antibodies (ATF2[SS-16]; ATF7[SAB2500131 or HPA003384]) on protein-G beads from Triton X-100 lysates of asynchronous and mitotic (shake-off) HeLa S3 cells; Western blot
T1 sequence: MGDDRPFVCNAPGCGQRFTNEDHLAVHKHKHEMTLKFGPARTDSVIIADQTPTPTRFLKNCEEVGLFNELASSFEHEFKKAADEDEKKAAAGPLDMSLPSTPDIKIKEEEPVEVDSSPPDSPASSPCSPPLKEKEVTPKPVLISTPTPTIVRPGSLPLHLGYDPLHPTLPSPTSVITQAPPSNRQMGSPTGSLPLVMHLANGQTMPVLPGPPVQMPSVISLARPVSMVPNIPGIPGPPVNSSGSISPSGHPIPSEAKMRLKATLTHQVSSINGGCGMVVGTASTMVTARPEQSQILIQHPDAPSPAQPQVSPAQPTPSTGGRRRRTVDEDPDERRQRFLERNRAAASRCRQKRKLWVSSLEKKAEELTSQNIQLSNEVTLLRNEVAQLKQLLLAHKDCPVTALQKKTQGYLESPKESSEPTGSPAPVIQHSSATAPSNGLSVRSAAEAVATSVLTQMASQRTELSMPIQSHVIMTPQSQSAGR

[2] = target: T2, Activating transcription factor 2 (ATF2), endogenous (human (endogenous in HeLa S3)) (UniProt P15336); experiment: as above
T2 sequence: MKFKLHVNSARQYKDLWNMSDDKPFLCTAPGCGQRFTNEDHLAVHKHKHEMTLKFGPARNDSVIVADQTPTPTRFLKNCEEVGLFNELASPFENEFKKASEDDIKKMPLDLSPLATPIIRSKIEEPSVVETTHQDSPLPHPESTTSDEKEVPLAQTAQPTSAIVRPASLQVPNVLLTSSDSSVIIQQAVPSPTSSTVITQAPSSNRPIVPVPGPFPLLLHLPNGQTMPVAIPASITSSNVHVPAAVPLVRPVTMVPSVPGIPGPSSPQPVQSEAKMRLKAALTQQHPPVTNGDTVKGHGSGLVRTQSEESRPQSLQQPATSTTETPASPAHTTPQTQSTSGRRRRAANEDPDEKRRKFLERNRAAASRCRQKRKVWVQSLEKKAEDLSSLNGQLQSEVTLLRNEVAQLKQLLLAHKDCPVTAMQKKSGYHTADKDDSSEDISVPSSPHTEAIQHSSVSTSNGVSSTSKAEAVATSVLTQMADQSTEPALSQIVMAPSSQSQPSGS

- binding [1]: binds
B1: Activating transcription factor 2 (ATF2), endogenous (protein, UniProt P15336-1 1-505)
chain: T2 sequence

- binding [2]: binds
B2: Activating transcription factor 7 (ATF7), endogenous (protein, UniProt P17544 1-483)
chain: T1 sequence

Source: article PMC4278844
